Measured values reported in PubChem BioAssay AID485314 (National Center for Advancing Translational Sciences (NCATS), 2010).
Hit rate of the full screen: of about 340,000 compounds, about 4,500 (1.3%) were called active. Inconclusive means that the source gave no clear call. Such entries were picked first, then a sample of the others. Calls come from the whole dose curve; as a rule, active = well fitted inhibition curve with a large enough effect; inconclusive = small, poorly fitted or top-dose-only effect, or another doubt; inactive = no such curve, though single readings can be large or run the other way. Potencies beside an inconclusive call are fits to weak or partial responses and may not hold up.

These compounds were tested against DNA polymerase beta (Homo sapiens) (UniProt P06746) (assay: qHTS Assay for Inhibitors of DNA Polymerase Beta). Settings: Pol beta primer extension/strand displacement, fluorescence kinetic; activity change, negative = inhibition: at 114 µM (top of the series).
In short: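 Kinetic readout of DNA synthesis with strand displacement by Pol beta. Compound and 10 nM enzyme sit 15 min at room temperature; 50 nM substrate starts the reaction, read immediately and at 10 min.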
% is set by controls: 0 for no effect and ±100 for the full control effect; potency is the fitted concentration of half-maximal effect.

Potency, inconclusive:
CNC(=O)c1csc(-c2ccc(C)cc2)n1 3.55 µM [inhibitor, partial curve], COc1ccc2c(-c3ccccc3)cc(SCC(=O)N(C)C3CCS(=O)(=O)C3)nc2c1 (stereo not drawn) 89.1 µM [inhibitor, single point], O=C(NCc1cccnc1)C1CC(c2ccc(Cl)c(Cl)c2)=NO1 (stereo not drawn) 39.8 µM [inhibitor, single point], O=C(NCCCN1CCN(c2cccc(Cl)c2)CC1)c1nnc(Cc2ccc(F)cc2Cl)o1 0.1 µM [inhibitor, full curve, poor fit], Cn1c2ccc(F)cc2c2nnc(SCCN3CCCCC3)nc21 39.8 µM [inhibitor, full curve, poor fit], Cc1cc(NC(=O)CN2C(=O)CC(c3ccco3)Sc3ccccc32)no1 (stereo not drawn) 70.8 µM [inhibitor, partial curve, poor fit], O=C(c1ccc([N+](=O)[O-])cc1)N(Cc1ccc(Cl)cc1Cl)N1C(=O)CCCC1=O 79.4 µM [inhibitor, single point], CC1=NN(c2nc(-c3ccc(C)cc3)cs2)C(=O)C1N=Nc1cccc(C)c1 (stereo not drawn) 79.4 µM [inhibitor, single point], O=C(c1cccc(-c2ccco2)c1)N1CCCC(N2CCN(c3ccc(F)cc3)CC2)C1 (stereo not drawn) 0.316 µM [inhibitor, full curve, poor fit], O=C(CCNc1n[nH]c(=O)[nH]c1=O)N/N=C\c1cccc(OCc2ccccc2)c1 3.55 µM [inhibitor, single point], CC(/C=C1\SC(=S)N(CCCC(=O)Nc2ccc(C(=O)O)cc2)C1=O)=C\c1ccccc1 20 µM [inhibitor, single point], CC1(C)C[C@@H]2C[C@@](C)(CN2C(=O)c2cc(COc3cccc(C(F)(F)F)c3)on2)C1 39.8 µM [inhibitor, single point], CCc1cc2c(=O)c(-c3ccc4c(c3)OCCO4)coc2c(CN2CCCCC2C)c1O (stereo not drawn) 7.94 µM [inhibitor, full curve, poor fit], Cc1ccc(C2=N/C(=C\c3c(C)nn(-c4ccccc4)c3N3CCCC3)C(=O)O2)cc1 12.6 µM [inhibitor, partial curve], COCC1CCN(Cc2cn[nH]c2-c2cc3ccccc3o2)C1 (stereo not drawn) 89.1 µM [inhibitor, single point], CCNC(=O)CC1S/C(=N/N=C(\C)c2ccccc2)NC1=O (stereo not drawn) 70.8 µM [inhibitor, single point], O=Cc1cc(N=Nc2ccccc2Cl)ccc1O 89.1 µM [inhibitor, single point], COP(=O)(CC(=O)c1ccccc1)CC(=O)c1ccccc1 44.7 µM [inhibitor, partial curve], NS(=O)(=O)c1ccc(NC2=CC(=O)C(=O)c3ccccc32)cc1 50.1 µM [inhibitor, partial curve, poor fit], O=C1c2ccccc2C(=O)N1/N=C/c1ccc(O)c(O)c1 2.82 µM [inhibitor, full curve], CSc1nc(-c2ccco2)nn1S(=O)(=O)c1ccc(C)cc1 22.4 µM [inhibitor, full curve], COc1ccc(NC(=O)C(CC(C)C)NS(=O)(=O)c2ccc3c(c2)oc(=O)n3C)cc1Cl (stereo not drawn) 89.1 µM [inhibitor, single point], CN1c2ccccc2C(O)=C(C(=S)Nc2ccccc2)S1(=O)=O 5.62 µM [inhibitor, full curve], O=C(O)c1ccc(N/N=C/C2=C(N3CCOCC3)C(=C\c3ccccc3)/CC2)cc1 56.2 µM [inhibitor, single point], COc1ccc(Nc2nc(C)nc3c2oc2ccccc23)cc1 89.1 µM [inhibitor, single point], O=C(CSC1CN(C(c2ccccc2)c2ccccc2)C1)N/N=C/c1ccc(Cl)cc1Cl 89.1 µM [inhibitor, single point], CCOC(=O)CC(NC(=O)Cc1cccs1)c1ccccc1Cl (stereo not drawn) 35.5 µM [inhibitor, partial curve], Cc1cc(C(=O)CSc2nnc(-c3ccc(OC(F)F)cc3)o2)c(C)n1Cc1cccs1 1 µM [inhibitor, full curve], COc1ccc2c(c1)c(=O)c(C(=O)c1ccc(Cl)cc1)cn2CC(=O)Nc1ccc2c(c1)OCO2 0.708 µM [inhibitor, partial curve, poor fit], Cc1ccc(C(c2nnnn2C(C)(C)C)N2CCc3ccccc3C2)cc1 (stereo not drawn) 89.1 µM [inhibitor, single point], CCCCCn1c(N)c(C#N)c2nc3ccccc3nc21 7.08 µM [inhibitor, full curve], CC(=O)Nc1cccc(-c2nnc3c4ccccc4c(C)nn23)c1 44.7 µM [inhibitor, partial curve], Cc1ccc(NC(=O)c2ccc(F)c(S(=O)(=O)N3CCc4ccccc4C3)c2)cc1F 100 µM [inhibitor, single point], CCOC(=O)c1[nH]c2c(c1C)C(=O)CC(c1ccc(F)cc1)C2 (stereo not drawn) 15.8 µM [inhibitor, full curve], O=C(N/C(=C/c1ccccc1)C(=O)N1CCCCC1)c1ccco1 89.1 µM [inhibitor, single point], Cc1c(Br)c([N+](=O)[O-])nn1CC(=O)Nc1ccc(C(C)C)cc1 4.47 µM [inhibitor, full curve, poor fit], CCOC(=O)C1=C(CNCCc2ccc(Cl)cc2)NC(=O)NC1c1ccc2c(c1)OCO2 (stereo not drawn) 89.1 µM [inhibitor, single point], COc1ccc(S(=O)(=O)NC(CC(=O)NCc2ccccc2OC)c2ccco2)cc1 (stereo not drawn) 89.1 µM [inhibitor, single point], COc1cccc(CNC(=O)c2c3c(nc4ccccc24)C(=O)N(C2CCCCC2)C3)c1 89.1 µM [inhibitor, single point], CCCCn1c(C)cc2c(c1=O)C1O[C@](c3ccc(OC)cc3)(Cc3cc(OC)c(OC)cc31)O2 14.1 µM [inhibitor, single point]

Potency, active:
CCOc1ccc(-c2csc(/C(C#N)=C\c3ccc(O)c([N+](=O)[O-])c3)n2)cc1 28.2 µM, O=C(Nc1ccc2nc(-c3ccco3)c(-c3ccco3)nc2c1)NC1CC1 3.55 µM, O=c1oc2ccccc2c2c1C1O[C@](c3ccsc3)(Cc3c1ccc1ccccc31)O2 12.6 µM, CSc1nnc(SCc2nc3sc(C(=O)O)c(C)c3c(=O)[nH]2)s1 6.31 µM, Cc1ccc(C2C(/C=C3/SC(=S)NC3=O)=C(c3cccs3)Oc3ccccc32)cc1 (stereo not drawn) 31.6 µM, CCNc1ccc(Br)cc(C(=O)/C=C/c2c(Cl)cccc2Cl)c1=O 8.91 µM, O=C(NCC1CCCO1)c1cc(-c2ccco2)nc2ccccc12 (stereo not drawn) 44.7 µM

Potency, inactive:
CC1(c2ccccc2)CC(C)(C)N(C(=O)c2ccccc2Cl)c2ccccc21 (stereo not drawn), Cc1ccc(C)c2[nH]c(=O)c(CN(Cc3ccco3)C(=S)NCC3CCCO3)cc12 (stereo not drawn), COc1ccc(NC(=O)C2CCCN2S(=O)(=O)c2ccc3c(c2)CCCC(=O)N3)cc1Cl (stereo not drawn), COc1cc(C2CC(=O)Nc3cc4c(cc32)OCCO4)cc(OC)c1O (stereo not drawn), CCCCC(=O)Nc1ccc(OCc2cc(=O)n3ccc(C)cc3n2)cc1, COc1cccc(-c2nc3sc4c(c3c(=O)[nH]2)CCCCC4)c1, Cc1onc(-c2c(F)cccc2Cl)c1C(=O)N(C)CCc1ccccn1, CN(C)c1ccc(/C=C2\C(=N)N3N=C(CC(=O)N4CCCC4)SC3=NC2=O)cc1Br, COC(=O)C(Cc1ccccc1)NC(=O)CCC(=O)NC(C)CCc1ccccc1 (stereo not drawn), COC(=O)CN1C(=O)C(C)(C)c2cc(S(=O)(=O)Nc3ccc(C(C)C)cc3)ccc21, COC(=O)c1ccc(Cl)cc1NC(=O)N1CCC(CN2CCC(C)CC2)CC1, CCOC(=O)C1=C(CS(=O)(=O)c2ccc(C)c(C)c2)NC(=O)NC1c1ccccc1OCC (stereo not drawn), O=C(Nc1ccc(F)c(Cl)c1)C1CCCN1S(=O)(=O)c1ccc(F)cc1 (stereo not drawn), COc1cccc(OC)c1Cn1nnc2c(=O)[nH]c(C3CCN(C(=O)c4ccccc4)CC3)nc21, COCCNc1ccc(-c2nc(-c3cccc(C)c3)no2)cc1[N+](=O)[O-], CCOC(=O)c1ccc(NC(=O)CN2C(=O)CC(c3ccc(C)c(C)c3)=Nc3ccccc32)cc1, CCOC(=O)N1CCc2c(sc(NCc3sccc3C)c2C(=O)Nc2ccccc2OCC)C1, COc1ccccc1CNC(=O)c1cc2c(=O)n(Cc3cccs3)ccc2nc1C, Cc1cc(O)c(-c2cc(O)c(C)cc2O)cc1O

Activity change, negative = inhibition, inconclusive:
CCOC(=O)c1ccc(NC(=O)CSc2nc(N)c(NC(=O)c3ccc(Br)o3)c(=O)[nH]2)cc1 -72.6% [inhibitor], COc1ccc(Cn2c(-c3ccco3)nc3c(c(=O)c4ccccc4n3C)c2=O)cc1 -38.1% [inhibitor]
